The source of these data is publication PMC9557730.

Results are given in words; binding and its absence hold for the method and conditions named. In cells and extracts the contact can be indirect. These calls come from enrichment with a bait or labelling near it, and not all partners need be listed. Tags and fused reporters may be left off the sequences shown.

For this test, the target named is T1, C-terminal protein A (pA)-tagged Rad3 (Saccharomyces cerevisiae) (UniProt P06839).
T1 sequence: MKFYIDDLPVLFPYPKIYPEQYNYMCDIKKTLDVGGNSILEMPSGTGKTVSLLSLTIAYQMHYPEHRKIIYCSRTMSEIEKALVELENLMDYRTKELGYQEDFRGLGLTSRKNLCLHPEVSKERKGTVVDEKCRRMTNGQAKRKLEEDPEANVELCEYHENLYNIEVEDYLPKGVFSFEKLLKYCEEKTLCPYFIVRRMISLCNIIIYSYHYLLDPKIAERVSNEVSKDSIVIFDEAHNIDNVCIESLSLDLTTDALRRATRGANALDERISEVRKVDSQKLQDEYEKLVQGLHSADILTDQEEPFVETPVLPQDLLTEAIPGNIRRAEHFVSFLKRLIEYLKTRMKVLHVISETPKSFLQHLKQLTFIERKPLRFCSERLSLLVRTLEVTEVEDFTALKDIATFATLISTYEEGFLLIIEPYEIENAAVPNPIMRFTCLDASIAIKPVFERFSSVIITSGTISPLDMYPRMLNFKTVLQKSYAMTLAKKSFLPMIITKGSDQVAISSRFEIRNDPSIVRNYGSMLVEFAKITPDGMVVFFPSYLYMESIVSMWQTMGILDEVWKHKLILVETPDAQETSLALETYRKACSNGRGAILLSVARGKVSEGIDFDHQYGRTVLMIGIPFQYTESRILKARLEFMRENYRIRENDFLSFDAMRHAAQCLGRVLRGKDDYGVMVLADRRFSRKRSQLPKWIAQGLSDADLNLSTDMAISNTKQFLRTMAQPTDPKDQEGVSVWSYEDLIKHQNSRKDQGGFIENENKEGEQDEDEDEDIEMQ
Briefly: affinity purification with mass spectrometry; as a7, from the strain with Tfb2 YL399–400AA.

B1: Tfb6 (protein, UniProt Q08816 1-343)
chain: MSEPNTPLHAQPNEQLDLNNLNDLDEKDIDDLNLDPNSDVEISADSGDVVNSNIDNVIWQRNCNKKRRYHTPEFNDVYNETNNTINDVTMLDDVDDFQPRINVSSPFSSATKLSELLPNDHNGTSHPRRLSMSQQSKFISYVDDQLLQIQRKFVQSRGLNIKNGYASLTPLLQDLKTLVDFVWYSIAHVPNSDYLLQSEEKRHCPDSRNPKDTCGYSSYFGQGSYLIKIADDLIDYVEKFTFKNMEDSEINDTLSKLFKLFFILDRIFVILTDDNDNCKEVPKTSSASKNIAGLNGTDIVRLKGIAERTRVRLPIFLESQGIHGYHYELSKIYEGFLDHANSF
With B1, the binding result is “binds”.
